Test results taken from US8679526B2, “Antimicrobial peroxidase compositions” (Flen Pharma N.V., priority 2005, dated 2014).
Some results were stated once for a whole list of compounds, not compound by compound.

Tested on: Candida albicans
Experiment: Growth retardation of Candida albicans in SD broth with enzyme/substrate system
Format: cell-based
Details: FIG. 9; 0.02% dilution of enzyme/substrate
Procedure: A yeast cell culture (A600=0.05) was grown in Sabouraud Dextrose (SD) broth (Difco™, Becton Dickinson) in the presence of a 0.02% dilution (suboptimal concentration) of the enzyme/substrate system described in example 1.

COc1ccccc1O [Guaiacol, 2-methoxyphenol]
duration of additional suppression of fungal growth: at least 24 hours

COc1cc(C=O)ccc1O [Vanillin, 4-hydroxy-3-methoxy-benzaldehyde]
duration of additional suppression of fungal growth: at least 24 hours
